Entries after “also recorded” stand apart in the source; their conditions may differ.
Tested on: K562 cells
Test: Subcellular localization of AlDeSense and BAAA
Format: cell-based, human
Details: co-staining with organelle trackers

Row | Compound | subcellular localization
1 | Cc1cc(C)n2c1C=C1C=CC(CCC(=O)NCC=O)=[N+]1[B-]2(F)F [BAAA, BODIPY-aminoacetaldehyde, reference compound] | localizes to the ER and mitochondria
2 | Cc1cc(C=O)ccc1-c1c2cc(F)c(=O)cc-2oc2cc(O)c(F)cc12 [AlDeSense] | stain the cytoplasm; also recorded: localizes in the cytosol

Reference: US11407725B2 (The Board of Trustees of the University of Illinois, priority 2018, dated 2022)
